The whole screen tested about 410,000 compounds, of which about 18,000 (4.4%) were called active. The shares of active, inactive and inconclusive entries below differ from those in the screen. Cut-off read from the data, not from the text of the source: active = activity change below about -60%; inconclusive = no clear call, values can overlap the other calls; inactive = above about -39%.
experiment: qHTS Assay for inhibitors of the human cytomegalovirus (HCMV); conditions: HFF cells, HCMV-luciferase reporter, 72 h; at 57.5 µM; hits give low values
Summary of the method: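 Screen run at 2 compound doses on HFFs infected with reporter HCMV, MOI 1 PFU/cell. Luciferase activity from cell lysates at 72 h post infection gave inhibition relative to buffer-only and Salinomycin wells.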
% is set by controls: 0 for no effect and ±100 for the full control effect.

Row | SMILES | activity change, negative = inhibition
1 | COCCCNC(=S)N/N=C/c1ccc(OC)c(Br)c1 | inconclusive: -47.7%
2 | CN(C)c1ccc(N2CN=C3SCC(=O)N3C2)cc1 | inactive: 30.1%
3 | Cc1ccc(S(=O)(=O)N2C[C@@H]3[C@H]4CC[C@H](C4)[C@@H]3[C@@H](C)[C@@H]2C2CCCCC2=O)cc1 (some centres not stated) | inconclusive: -43%
4 | COc1ccc(S(=O)(=O)N2CCN(C(=O)c3ccc(=O)[nH]n3)CC2)cc1OC | inconclusive: -47.2%
5 | CC(C)OCCCNC1=C(Cl)C(=O)c2ccccc2C1=O | inconclusive: -48.2%
6 | CCN1c2ccccc2-c2nc3ccccc3n2C1c1cccs1 (configuration not stated) | inconclusive: -58.3%
7 | O=[N+]([O-])c1cc(S(=O)(=O)N2CCCCCC2)ccc1Cl | inconclusive: -47.4%
8 | O=C(CCl)Nc1sccc1C(=O)c1ccccc1 | inactive: -14.2%
9 | COc1cc2c(cc1NC(=O)CSc1nc3ccccc3[nH]1)oc1ccccc12 | inconclusive: -45.3%
10 | COC(=O)Cn1cc(/C=N/NC(=O)COc2cccc3cccnc23)c2ccccc21 | active: -69.5%
11 | COc1ccc(N(C(=O)c2ccco2)C(C(=O)NC2CCCC2)c2cccs2)cc1 (configuration not stated) | active: -69%
12 | CCOC(=O)C1(CCOc2ccccc2)CCN(C(=O)c2ccc(-n3cccn3)cc2)CC1 | inconclusive: -48.1%
13 | O=C(O)c1ccc(Nc2nc3c(s2)CCCC3)cc1 | inconclusive: -57.5%
14 | CCOC(=O)C1(CCOc2ccccc2)CCN(Cc2cc(OC)c(O)c(OC)c2)CC1 | inactive: -24.9%
15 | Cc1ccc(-c2noc(-c3cc(C(C)(C)C)nn3Cc3ccccc3)n2)cc1 | inactive: -8.88%
16 | CCOC(=O)[C@]12Cc3ccc(C)cc3[C@H]1N(C1CCCCC1)C(=O)c1cc(OC)ccc12 | active: -103%
17 | Cc1ccc(SCC(=O)NC2CCS(=O)(=O)C2)cc1 (configuration not stated) | active: -64.7%
18 | O=C(CN1CCCC1=O)NC1CCCc2c1cnn2-c1cc(F)cc(F)c1 (configuration not stated) | inconclusive: -49.4%
20 | CC(C)CCNC(=O)c1onc(CSc2ccc(F)c(F)c2)c1C(=O)NCCC(C)C | inactive: 23.1%
21 | C[C@H]1CN([C@@H](C)CO)C(=O)c2cc(-c3ccccc3F)cnc2O[C@@H]1CN(C)C(=O)NC1CCCCC1 | inactive: 3.69%

Sorted by formula weight (ascending): four of the compounds above
Row | SMILES | activity change, negative = inhibition
17 | Cc1ccc(SCC(=O)NC2CCS(=O)(=O)C2)cc1 (configuration not stated) | active: -64.7%
9 | COc1cc2c(cc1NC(=O)CSc1nc3ccccc3[nH]1)oc1ccccc12 | inconclusive: -45.3%
10 | COC(=O)Cn1cc(/C=N/NC(=O)COc2cccc3cccnc23)c2ccccc21 | active: -69.5%
16 | CCOC(=O)[C@]12Cc3ccc(C)cc3[C@H]1N(C1CCCCC1)C(=O)c1cc(OC)ccc12 | active: -103%

Next entries

Row | SMILES | activity change, negative = inhibition
22 | Cc1ncoc1C(=O)N1CCCC(C(=O)c2cccc(C(F)(F)F)c2)C1 (configuration not stated) | inconclusive: -43%
23 | CCOC(=O)C1CCN(S(=O)(=O)c2ccc3c(c2)N(C)C(=O)CC(=O)N3C)CC1 | inconclusive: 0%
24 | O=C(Nc1ccccc1OC(F)F)c1ccc(S(=O)(=O)N2CCOCC2)cc1 | inconclusive: -44.8%
25 | COc1ccc(C(O)c2nc(-c3cccc(CO)c3)cs2)cc1 (configuration not stated) | inactive: -2.02%
26 | CCOc1ccc(/C=N/NC(=O)CC(=O)Nc2ccc(Cl)c(Cl)c2)cc1 | inactive: -16.3%
27 | CC(C)N1C(=O)c2ccccc2C1C(=O)NC1CCCCCC1 (configuration not stated) | inactive: 7.19%
28 | Cc1ccc2c(c1)NC(=O)C(CC(=O)Nc1ccc(Br)c(C)c1)O2 (configuration not stated) | inconclusive: -49.4%
29 | CN=C1SC(C(=O)Nc2ccccc2Cl)CC(=O)N1c1ccc(OC(F)(F)Cl)cc1 (configuration not stated) | inactive: 39.6%
30 | Cc1ccc(NC(=O)c2ccc(OC(F)F)cc2)cc1S(=O)(=O)N(C)C | active: -95.1%
31 | OC(COc1ccc(CNCCc2ccc(C(F)(F)F)cc2)cc1)CN1CCCCC1 (configuration not stated) | active: -80.1%
32 | COC(=O)c1c(NC(=O)CSc2ncnc3[nH]ncc23)sc2c1CCC2 | active: -80.8%
33 | Fc1ccc(-c2noc3ncnc(NCc4ccc(Cl)cc4)c23)cc1 | inconclusive: -40.7%
34 | CN(Cc1ccccc1)C(=O)c1ccc2c(c1)N(Cc1ccccc1Cl)C(=O)c1ccccc1S2 | inconclusive: -45.9%
35 | COc1ccc(OCC(NS(=O)(=O)c2ccc(-n3cnnn3)cc2)C(C)C)cc1 (configuration not stated) | inactive: -4.56%
36 | CCCc1ccc(-c2cc(C(=O)N/N=C/c3ccc([N+](=O)[O-])o3)c3ccccc3n2)cc1 | inconclusive: -57.2%
37 | CCN1C(=O)c2ccccc2S(=O)c2ccc(C(=O)N3CCN(c4cc(Cl)ccc4C)CC3)cc21 (configuration not stated) | inconclusive: -55.6%
38 | CC(C)(C)[C@H](N)C(=O)N[C@H]1CCC2C3CC=C4C[C@@H](O)CC[C@]4(C)C3CC[C@@]21C (some centres not stated) | active: -99.3%
39 | C[C@H]1[C@H](c2ccccc2)Oc2cc(Br)ccc2S(=O)(=O)N1Cc1cccc(F)c1 | inconclusive: -55.8%
40 | CC(C)C(=O)Nc1cc(S(=O)(=O)Nc2ccc(Cl)cc2)ccc1Cl | inconclusive: -42.9%
41 | O=C(N/N=C/c1ccc([N+](=O)[O-])s1)c1cccnc1 | active: -83.3%
42 | Cc1cccc(OCC(=O)N(Cc2cccs2)c2ccc(Cl)cc2)c1C | inconclusive: -57.6%

From PubChem BioAssay AID1259415 (National Center for Advancing Translational Sciences (NCATS), 2018)
